Laboratory results taken from article PMC10181192.

Molecular target: GST-Rat-Dcc (Dcc cytoplasmic domain only) (rat)
Experiment: pull-down; 3 μg GST or GST fusion protein on glutathione-agarose beads incubated with 25-40 μl in vitro translated protein(s) for 2 hours at 4°C in 0.1% IPH buffer (50 mM tris pH 8.0, 50 to 150 mM NaCl, 5 mM EDTA, 0.01% BSA, 0.1% NP40); Western blot; only the target purified

B1: Rat Git1^WT-FLAG, in vitro translated (protein, UniProt Q9Z272 1-770)
chain: MSRKGPRAEVCADCSAPDPGWASISRGVLVCDECCSVHRSLGRHISIVKHLRHSAWPPTLLQMVHTLASNGANSIWEHSLLDPAQVQSGRRKANPQDKVHPIKSEFIRAKYQMLAFVHKLPCRDDDGVTAKDLSKQLHSSVRTGNLETCLRLLSLGAQANFFHPEKGTTPLHVAAKAGQTLQAELLVVYGADPGSPDVNGRTPIDYARQAGHHELAERLVECQYELTDRLAFYLCGRKPDHKNGHYIIPQMADRSRQKCMSQSLDLSELAKAAKKKLQALSNRLFEELAMDVYDEVDRRENDAVWLATQNHSTLVTERSAVPFLPVNPEYSATRNQGRQKLARFNAREFATLIIDILSEAKRRQQGKSLSSPTDNLELSARNQSDLDDQHDYDSVASDEDTDQEPLPSAGATRNNRARSMDSSDLSDGAVTLQEYLELKKALATSEAKVQQLMKVNSSLSDELRKLQREIHKLQAENLQLRQPPGPVPVPSLPSERAEHTLMGPGGSTHRRDRQAFSMYEPGSALKPFGGAPGDELATRLQPFHSTELEDDAIYSVHVPAGLYRIRKGVSASSVTFTPSSPLLSSSQEGSRHASKLSRHGSGAESDYENTQSGEPLLGLEGKRFLELSKEDELHAELESLDGDPDPGLPSTEDVILKTEQVTKNIQELLRAAQEFKHDSFVPCSEKIHLAVTEMASLFPKRPALEPVRSSLRLLNASAYRLQSECRKTVPPEPGAPVDFQLLTQQVIQCAYDIAKAAKQLVTITTREKKQ
binding: binds

No constants are given. Whether binding was seen depends on the method and setting. Binding seen in cells or lysates may run through a third protein. A result given as binding can be weak or reduced; the word gives no strength. Sequences can lack the tags named with a protein.
